Experimental data reported in publication PMC8884900.
These are yes or no findings as the source states them, for the method shown. In cells and extracts the contact can be indirect. Some binding calls cover weakened binding; strength is not graded here.

The chains behind the UniProt entries cited, without tags or fusion partners. Residues count along the entry.
UniProt P12023, residues 18-770: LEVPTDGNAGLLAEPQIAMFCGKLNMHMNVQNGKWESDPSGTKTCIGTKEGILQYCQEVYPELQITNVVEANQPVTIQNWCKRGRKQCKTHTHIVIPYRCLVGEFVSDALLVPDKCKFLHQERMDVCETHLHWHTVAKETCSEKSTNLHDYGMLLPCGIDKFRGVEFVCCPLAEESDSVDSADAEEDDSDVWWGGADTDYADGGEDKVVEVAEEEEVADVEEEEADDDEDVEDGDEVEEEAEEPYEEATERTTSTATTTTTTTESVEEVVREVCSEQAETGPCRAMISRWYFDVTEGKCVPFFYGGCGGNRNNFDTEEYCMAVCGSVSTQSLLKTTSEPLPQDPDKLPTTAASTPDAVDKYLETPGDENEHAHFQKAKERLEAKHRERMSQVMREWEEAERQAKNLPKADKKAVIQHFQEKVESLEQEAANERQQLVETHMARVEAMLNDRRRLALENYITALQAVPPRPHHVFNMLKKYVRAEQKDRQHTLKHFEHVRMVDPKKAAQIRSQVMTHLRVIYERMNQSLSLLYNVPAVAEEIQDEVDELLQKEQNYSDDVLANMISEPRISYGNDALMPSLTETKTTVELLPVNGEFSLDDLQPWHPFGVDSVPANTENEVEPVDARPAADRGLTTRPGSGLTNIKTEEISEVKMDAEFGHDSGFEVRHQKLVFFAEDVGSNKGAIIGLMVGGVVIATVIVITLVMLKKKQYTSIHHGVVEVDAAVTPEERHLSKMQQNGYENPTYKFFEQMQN

Molecular target: APP (endogenous, mouse cortex) (mouse (endogenous in C57BL/6 cortex)) (UniProt P12023)
Assay: co-IP; endogenous proteins in C57BL/6 mouse cortical lysates; rabbit IgG as negative control

B1: USP25 (endogenous, mouse cortex) (enzyme, UniProt P57080 1-1055)
chain: MTVEQNVLQQSAAQKHQQTFLNQLREITGINDAQILQQALKDSNGNLELAVAFLTAKNAKTPPQEETGYYQTALPGNDRYISVGSQADANVIDLTGDDKDDLQRAIALSLAESNRAFRETGITDEEQAISRVLEASIAENKACLKRTPIEVWRDSRNPYDRKRQEKAPVGLKNVGNTCWFSAVIQSLFNLLEFRRLVLNYKPPSNAQDLPRNQKEHRNLPFMRELRYLFALLVGTKRKYVDPSRAVEILKDAFKSNDSQQQDVSEFTHKLLDWLEDAFQMKAEEETDEEKPKNPMVELFYGRFLAMGVLEGKKFENTEMFGQYPLQVNGFKDLHECLEAAMIEGEIESLHSDNSGKSGQEHWFTELPPVLTFELSRFEFNQALGRPEKIHNKLEFPQVLYLDRYMHRNREITRIKREEIKRLKDYLTVLQQRLERYLSYGSGPKRFPLVDVLQYALEFASSKPVCTSPVDDIDASSSASGPLPSQSLPSTTEQQGPCASDLPGSSSPASGAALPLRSVIHKPFTQSRIPPDLPMHPAPRHITEEELCVLESCLHRWRTEIENDTRDLQESISRIHRTIELMYSDKSMIQVPYRLHAVLVHEGQANAGHYWAYIFDHRESRWMKYNDIAVTKSSWEELVRDSFGGYRNASAYCLMYIDDKAQFLIQEEFNKETGQALVGMETLPPDLRDFVEEDNQRFEKELEEWDTQLAQRSLQEKLLAAPKLREAEASATTAQAGGADYLEQPSRSDLSKHWKEETLRVIAKASHDLEDKGPETVLQSAIKLEYSRLVKLAQEDTPPETDYRLHHVLVYFIQNQAPKKIIEKTLLEQFGDRNLSFDERCHNIMKVAQAKLEMIKPEEVNLEEYEEWHADYKKFRETTMYLITGLENFQRESYIDSLLFLLCAYQNNKELLSKGPYRGHDGELISHYRRECLLKLNEQAAELFESGEDGDVNNGLIIMNEFIVPFLPLLLVDDMEEKDILAVEDMRNRWCSYLGQEMEANLQEKLTDFLPKLLDCSTEIKGFHEPPKLPSYSAHELCERFARIMLSLSRTPADGR
How did the binding turn out when B1 was run?
Its binding is “binds”.
